Consider two substances from publication PMC10243067.

Sequences of proteins named here, by UniProt entry; tags and fusion partners are left off.
UniProt O15541: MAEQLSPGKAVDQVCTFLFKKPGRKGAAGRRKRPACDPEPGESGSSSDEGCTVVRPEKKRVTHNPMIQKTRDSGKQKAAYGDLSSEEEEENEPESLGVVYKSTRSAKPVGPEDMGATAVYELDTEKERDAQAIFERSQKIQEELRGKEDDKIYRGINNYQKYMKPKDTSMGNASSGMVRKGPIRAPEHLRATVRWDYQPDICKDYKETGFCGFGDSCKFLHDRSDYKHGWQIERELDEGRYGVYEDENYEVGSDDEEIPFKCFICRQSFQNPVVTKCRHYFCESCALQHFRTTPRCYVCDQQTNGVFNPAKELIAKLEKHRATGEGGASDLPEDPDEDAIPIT
UniProt Q86U44: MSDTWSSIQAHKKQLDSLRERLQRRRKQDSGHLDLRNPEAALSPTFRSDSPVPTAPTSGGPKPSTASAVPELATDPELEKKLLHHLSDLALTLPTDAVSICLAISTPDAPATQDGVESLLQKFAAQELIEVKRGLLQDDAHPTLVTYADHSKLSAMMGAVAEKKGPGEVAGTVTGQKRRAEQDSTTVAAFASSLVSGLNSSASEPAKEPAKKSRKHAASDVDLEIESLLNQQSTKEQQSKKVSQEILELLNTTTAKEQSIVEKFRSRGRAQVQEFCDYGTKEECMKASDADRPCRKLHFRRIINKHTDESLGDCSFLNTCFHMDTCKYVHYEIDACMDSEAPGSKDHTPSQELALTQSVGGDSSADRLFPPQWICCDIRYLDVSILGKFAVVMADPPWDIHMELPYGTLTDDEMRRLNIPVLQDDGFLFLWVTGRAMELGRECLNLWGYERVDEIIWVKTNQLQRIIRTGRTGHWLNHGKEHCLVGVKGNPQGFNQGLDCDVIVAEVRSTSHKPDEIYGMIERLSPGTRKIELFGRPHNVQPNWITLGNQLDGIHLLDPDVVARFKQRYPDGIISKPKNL

These are yes or no findings as the source states them, for the method shown. In cells and extracts the contact can be indirect. Some binding calls cover weakened binding; strength is not graded here.

For assay [1], the target named is RNF113A (UniProt O15541). Briefly: co-IP; reciprocal co-immunoprecipitation in 293 T cells; lysate in IP buffer incubated with antibody-binding magnetic beads at 4 °C overnight, western blot. (In western blotting, separated proteins are transferred to a membrane and probed.)
For assay [2], the target named is METTL3 (UniProt Q86U44). Described as above.

For “METTL3 (from UniProt Q86U44 1-580) (enzyme)”, the binding result in assay [1] is listed as “binds”.

For “RNF113A (from UniProt O15541 1-343) (enzyme)”, the binding entry in assay [2] is listed as “binds”.
